± gives the standard deviation. This is a selection; strong and weak results do not stand in their true shares. Many of these values have a large error.
System: MIWI (PIWIL1) piRISC loaded with piRNA #1 (30 nt);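 further: 1 nM active piRISC with 0.1 nM target library at 33 °C single turnover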
Assay: pre-steady-state target cleavage rate (min^-1); higher = faster piRNA-guided slicing of the target
Details: guide: piRNA #1 5'p-UGAGGUAGUAGGUUGUAUAGUAUCCAGAGG; auxiliary factor: 500 nM mouse GTSF1
Outline: (§1)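 A transcribed, DNA-blocked target RNA library […] was incubated at 33 °C for 0–8 or 0–960 min with 1 nM active affinity-purified piRISC carrying one synthetic guide, in HEPES–potassium acetate buffer with or without 500 nM GTSF1 partner protein. Uncleaved targets were then sequenced and normalised to depth and to weakly complementary targets. Data from three trials were pooled, with k3 capped at 0.0001 min^-1, and a burst-and-steady-state fit yielded the pre-steady-state cleavage rate.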

| Sequence | pre-steady-state target cleavage rate |
| --- | --- |
| GGAGACCUAUGAUAUGUUGGUACUACCUCA [g2:g10:cont:t1A] | 0.000232 ± 0.019 |
| GGAGACCUAUGAUUUACAACCUACUACCUCA | 0.00209 ± 0.0041 |
| GGAGACCUAUGAUUACAACCUACUAGCUCA | 0.000326 ± 0.0066 |
| GGAGACCUAUGAUUACAUCCUACUACCUGA | 0.00112 ± 0.0048 |
| GGAGACCUAUGUAUACAACCUACAACCUGA | 0.0013 ± 0.0028 |
| GGAGUGAUACUAUACAACCUACUACCUCA | 1.77 ± 0.11 |
| GGAGACCUAUGAAUACAACCUACUACCGCA | 0.00152 ± 0.0038 |
| GGAGUGGAUACUAUAGAACCUACUAGCUCA | 0.00173 ± 0.0032 |
| GGAGACCUAUGAUUACAACGUACUUCCUCA | 0.000818 ± 0.0074 |
| GGAGAGAGAUACUAUACAACCUACUACCUCA | 2.02 ± 0.12 |
| GGAGACCUAUGAUAUGUUCCAUCUACCUCA | 0.000508 ± 0.0086 |
| GGAGACCUAUGAUAUGUUGCUACUACCUCU [g2:g11:cont:t1U] | 0.000156 ± 0.014 |
| GGAGACCUAUGAAUACAACGUACUUCCUCA | 0.000225 ± 0.01 |
| GGAGACCUAACUUUACUACCUACUACCUCA | 0.00226 ± 0.0052 |
| GGAGACCUAUGUAAACAUCCUACUACCUCA | 0.000818 ± 0.0045 |
| GGAGACCUAUGAUAUGUUACUACUACCUCA | 0.000352 ± 0.014 |
| GGAGAGGGUACUAUACAACCUACUACCUCA | 1.17 ± 0.051 |
| GGAGACCUAUGAUUACAACCUACAUACCUCA | 0.000816 ± 0.0041 |
| GGAGACCUAUGAUAUGUUGGUACUUGGUCA | 0.00014 ± 0.022 |
| GGAGACCUAACAAUACAACCUACUUCCUCA | 0.00245 ± 0.0054 |

| Sequence | pre-steady-state target cleavage rate |
| --- | --- |
| GGAGACCUAACUAUACAGACCUACUACCUCA | 0.000107 ± 0.045 |
| GGAGACCUAUGAUUACAACCUACUACCCUCA | 0.00118 ± 0.0056 |
| GGAGACCUAUGUAUACAACCUAACUACCUCA | 0.00213 ± 0.0037 |
| GGAGACCUAUGAUUACAAGCUACAACCUCA | 0.000869 ± 0.0064 |
| GGAGACCUAUGUAUAUCAACCUACUACCUCA | 0.00121 ± 0.0031 |
| GGAGACCUAUGAUAACAAGCUACUACCACA | 0.000834 ± 0.0062 |
| GGAGACCUAUGUAUACAACCAUACUACCUCA | 0.00102 ± 0.0077 |
| GGAGACCUAUGAUAUGUUCCUACUACCUUCA | 0.000152 ± 0.016 |
| GGAGACCUAACAUAACAACCUACUACCUCA | 0.00255 ± 0.0052 |
| GGAGACCAAACUAUACAUCCUACUACCUCA | 0.513 ± 0.06 |
| GGAGACCUAUGUUUACAACCUACUACCUGA | 0.00171 ± 0.0046 |
| GGAGACCUAUGAUAACAACCUACUAGCCUCA | 0.000949 ± 0.0058 |
| GGAGACCUAUGAUUACAACCUAUUACCUCA | 0.000328 ± 0.006 |
| GGAGACCUAUGAUUACAACCUAAUACCUCA | 0.000461 ± 0.0049 |
| GGAGACCUAUGAUUACUACCUACAACCUCA | 0.000145 ± 0.012 |
| GGAGACGAUAGUAUACUACCUACUACCUCA | 0.67 ± 0.071 |
| GGAGACCUAACUAUACAACCUACAUGCUCA | 0.000808 ± 0.011 |
| GGAGACCUAACUAUACUAGCUACUACCUCA | 0.0132 ± 0.006 |
| GGAGACCUAUCUAUACAACCUACUACACUCA | 0.634 ± 0.061 |
| GGAGACCUAUGUAAACAACGUACUACCUCA | 0.000253 ± 0.0094 |

System: EfPiwi piRISC loaded with piRNA #1 (26 nt)
Assay: pre-steady-state target cleavage rate (min^-1); guide: piRNA #1 5'p-UGAGGUAGUAGGUUGUAUAGUAUCCA; MIWI and MILI are mouse PIWI proteins and EfPiwi is from a freshwater sponge; tags in brackets are library labels; higher = faster piRNA-guided slicing of the target
Details: auxiliary factor: 500 nM Ephydatia muelleri Gtsf1
Outline: as §1

| Sequence | pre-steady-state target cleavage rate |
| --- | --- |
| GGAGACCUAUGAUAUGUUGGUACUACCUCA [g2:g10:cont:t1A] | 0.00103 ± 0.0056 |
| GGAGACCUAUGAUUUACAACCUACUACCUCA | 0.00279 ± 0.005 |
| GGAGACCUAUGAUUACAACCUACUAGCUCA | 0.00166 ± 0.0049 |
| GGAGACCUAUGAUUACAUCCUACUACCUGA | 0.00115 ± 0.0057 |
| GGAGACCUAUGUAUACAACCUACAACCUGA | 0.000221 ± 0.013 |
| GGAGUGAUACUAUACAACCUACUACCUCA | 0.186 ± 0.069 |
| GGAGACCUAUGAAUACAACCUACUACCGCA | 0.000685 ± 0.0068 |
| GGAGUGGAUACUAUAGAACCUACUAGCUCA | 0.00232 ± 0.0015 |
| GGAGACCUAUGAUUACAACGUACUUCCUCA | 0.000508 ± 0.0071 |
| GGAGAGAGAUACUAUACAACCUACUACCUCA | 0.159 ± 0.057 |
| GGAGACCUAUGAUAUGUUCCAUCUACCUCA | 0.000238 ± 0.009 |
| GGAGACCUAUGAUAUGUUGCUACUACCUCU [g2:g11:cont:t1U] | 0.000302 ± 0.009 |
| GGAGACCUAUGAAUACAACGUACUUCCUCA | 0.00033 ± 0.0071 |
| GGAGACCUAACUUUACUACCUACUACCUCA | 0.00117 ± 0.0066 |
| GGAGACCUAUGUAAACAUCCUACUACCUCA | 0.000687 ± 0.0072 |
| GGAGACCUAUGAUAUGUUACUACUACCUCA | 0.00138 ± 0.0037 |
| GGAGAGGGUACUAUACAACCUACUACCUCA | 0.0162 ± 0.0072 |
| GGAGACCUAUGAUUACAACCUACAUACCUCA | 0.000156 ± 0.016 |
| GGAGACCUAUGAUAUGUUGGUACUUGGUCA | 0.000543 ± 0.0071 |
| GGAGACCUAACAAUACAACCUACUUCCUCA | 0.00155 ± 0.0042 |

| Sequence | pre-steady-state target cleavage rate |
| --- | --- |
| GGAGACCUAACUAUACAGACCUACUACCUCA | 0.00153 ± 0.0049 |
| GGAGACCUAUGAUUACAACCUACUACCCUCA | 0.000968 ± 0.0075 |
| GGAGACCUAUGUAUACAACCUAACUACCUCA | 0.000568 ± 0.011 |
| GGAGACCUAUGAUUACAAGCUACAACCUCA | 0.00111 ± 0.0072 |
| GGAGACCUAUGUAUAUCAACCUACUACCUCA | 0.0039 ± 0.0041 |
| GGAGACCUAUGAUAACAAGCUACUACCACA | 0.000184 ± 0.015 |
| GGAGACCUAUGUAUACAACCAUACUACCUCA | 0.00131 ± 0.009 |
| GGAGACCUAUGAUAUGUUCCUACUACCUUCA | 0.00017 ± 0.0094 |
| GGAGACCUAACAUAACAACCUACUACCUCA | 0.00244 ± 0.0049 |
| GGAGACCAAACUAUACAUCCUACUACCUCA | 0.0348 ± 0.013 |
| GGAGACCUAUGUUUACAACCUACUACCUGA | 0.000676 ± 0.0052 |
| GGAGACCUAUGAUAACAACCUACUAGCCUCA | 0.000709 ± 0.01 |
| GGAGACCUAUGAUUACAACCUAUUACCUCA | 0.00188 ± 0.0045 |
| GGAGACCUAUGAUUACAACCUAAUACCUCA | 0.0019 ± 0.0052 |
| GGAGACCUAUGAUUACUACCUACAACCUCA | 0.000183 ± 0.012 |
| GGAGACGAUAGUAUACUACCUACUACCUCA | 0.00258 ± 0.0031 |
| GGAGACCUAACUAUACAACCUACAUGCUCA | 0.000186 ± 0.017 |
| GGAGACCUAACUAUACUAGCUACUACCUCA | 0.00203 ± 0.0041 |
| GGAGACCUAUCUAUACAACCUACUACACUCA | 0.00409 ± 0.0046 |
| GGAGACCUAUGUAAACAACGUACUACCUCA | 0.000233 ± 0.012 |

Reference: the supplement of paper PMC10338343
